This is one part of the list.
target: OsWRKY34 (Oryza sativa, UniProt Q0JBA9 1-250); assay: protein-binding microarray (RPBM); PBS, 2% BSA, 51.3 ng/ul salmon testes DNA, 50 uM zinc acetate, 200 nM TF, 25 C, 1 h; high values mean tight binding; conditions: protein: recombinant; tags: N-terminal polyhistidine and DsRed monomer fusion (pET32a); label: CyDye5-dUTP incorporated in the synthesized complementary strand; 3' TTTTT single-stranded linker to array surface; dsDNA, one strand shown
Procedure, shortened: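 Binding signal here means per-feature fluorescence intensity in arbitrary units. The values were read on an Axon 4000B scanner after a custom Agilent array, double-stranded by primer extension with Cy5-dUTP, was incubated with 200 nM protein at 25 °C for 1 h in PBS with 2% BSA, salmon testes DNA and 50 µM zinc acetate, then washed. The proteins were transcription factors with an N-terminal polyhistidine tag and DsRed, expressed in E. coli BL21-CodonPlus and purified on Ni–NTA.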

By UniProt entry, the sequences of proteins in these tests, tags left out.
UniProt Q0JBA9, entry or part of it: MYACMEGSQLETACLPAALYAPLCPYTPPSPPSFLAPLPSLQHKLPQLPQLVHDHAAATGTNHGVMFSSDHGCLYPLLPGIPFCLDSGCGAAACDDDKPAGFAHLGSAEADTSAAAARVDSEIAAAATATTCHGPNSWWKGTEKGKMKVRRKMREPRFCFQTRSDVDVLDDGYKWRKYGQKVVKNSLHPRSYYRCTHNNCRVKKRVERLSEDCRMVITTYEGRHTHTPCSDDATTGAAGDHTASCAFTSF

Which binding signal does the source give for “AGGGAGGGAGGGCCATCGATCATGAGGAGGGTGTTATACACGGAGTCACCTAGTGCAG” here?
The binding signal was 9930 fluorescence intensity (a.u.).

How did the binding signal turn out when “TCCCGTGCGCCGCCGCCTCGTCGTTCCATCTAAGTCGCGACGGAGTCACCTAGTGCAG” was run?
Its binding signal is 9280 fluorescence intensity (a.u.).

How did the binding signal turn out when “GTTTCTTGCTTTCTTGGCCATGGTTTATGAATGGATTCTGCGGAGTCACCTAGTGCAG” was run?
Its binding signal is 8500 fluorescence intensity (a.u.).

“GCCCCACTGTCGGCCACCCCACTCCCCGCCGTCCTCCTCCCGGAGTCACCTAGTGCAG” was tested. Which binding signal did it give?
The binding signal was 8820 fluorescence intensity (a.u.).

“CTTCGCTTTCGTCACGTTCTTGATTTGGGCGGGCGCGGAGCGGAGTCACCTAGTGCAG” was tested. Which binding signal did it give?
Its binding signal is 8980 fluorescence intensity (a.u.).

Which binding signal does the source give for “CGAGGCCATTCTATCGCGCAAATCTTTTACACCTCGCTGTCGGAGTCACCTAGTGCAG” here?
Its binding signal is 10400 fluorescence intensity (a.u.).

For “GCAACTTTTTATTTTTTATATTTGCAAAAGTTTTTTAAATCGGAGTCACCTAGTGCAG”, which binding signal is on record?
Its binding signal is 8390 fluorescence intensity (a.u.).

“TTCTGCCTGTCTTTAGGTTCAATGATGATCCCTTGTCAAACGGAGTCACCTAGTGCAG” was tested. Which binding signal did it give?
The binding signal was 13700 fluorescence intensity (a.u.).

For “ATACAATATTTTGGGGTGGTTACAATTTACACAGTATTCTCGGAGTCACCTAGTGCAG”, which binding signal is on record?
The binding signal was 11500 fluorescence intensity (a.u.).

“TGATTTTCTTTTTATTCCATGTTCTACTTTTTAATTTTTTCGGAGTCACCTAGTGCAG” was tested. Which binding signal did it give?
The binding signal was 10000 fluorescence intensity (a.u.).

For “GCCACCATTAATTGCGAGCTGCTTCTTCTTCCCGTTCTTGCGGAGTCACCTAGTGCAG”, which binding signal is on record?
The binding signal was 10100 fluorescence intensity (a.u.).

With “CAACACCCAAATCCCATCGTTCTTGTATTCTCCACTAGTCCGGAGTCACCTAGTGCAG” as the sequence, how does the binding signal read?
The binding signal was 9410 fluorescence intensity (a.u.).

Which binding signal does the source give for “AATCAGGCAGGCACCTTTTTCGCGTTGCACCACCGCGCCACGGAGTCACCTAGTGCAG” here?
The binding signal was 10500 fluorescence intensity (a.u.).

Which binding signal does the source give for “CATCCACCGCCACCGCCACCGCCACCGCCACCTCACCACCCGGAGTCACCTAGTGCAG” here?
The binding signal was 14000 fluorescence intensity (a.u.).

For “TTTCTCTCACATCTTTTATTTTATTATTAAAATATGTTTACGGAGTCACCTAGTGCAG”, which binding signal is on record?
Its binding signal is 8550 fluorescence intensity (a.u.).

Which binding signal does the source give for “CATCCGCGGCAGCAGCCGCCCGCCGACCGCGCGCTTCTCCCGGAGTCACCTAGTGCAG” here?
The binding signal was 8690 fluorescence intensity (a.u.).

“CAATCAAACGGTCATTTTTATATTTTTCCTATGTTTTACACGGAGTCACCTAGTGCAG” was tested. Which binding signal did it give?
Its binding signal is 12300 fluorescence intensity (a.u.).

With “ATGGGCTTCTTTTTGTGGTGTACATGATTTAGACTTTTTGCGGAGTCACCTAGTGCAG” as the sequence, how does the binding signal read?
The binding signal was 10700 fluorescence intensity (a.u.).

How did the binding signal turn out when “CTCCGTTGTGCTCTGTCTCTCTACCGCCACCATCCACTGCCGGAGTCACCTAGTGCAG” was run?
The binding signal was 12000 fluorescence intensity (a.u.).

Which binding signal does the source give for “GCTTTGTGCACGTATATATATTTCACCGTCTCGTTCAATCCGGAGTCACCTAGTGCAG” here?
The binding signal was 9640 fluorescence intensity (a.u.).

For “AAACTTCTGATCTTGGTTGTATACTATATTTTCCCTTTCACGGAGTCACCTAGTGCAG”, which binding signal is on record?
Its binding signal is 8290 fluorescence intensity (a.u.).

Which binding signal does the source give for “CCCAATTTTTTAATAGTGTTCCGTTTCAGAAATCACTTTCCGGAGTCACCTAGTGCAG” here?
The binding signal was 8400 fluorescence intensity (a.u.).

With “TCTCCTCCATCATCGCAGCCAACTCCAACATCCTGAGCTCCGGAGTCACCTAGTGCAG” as the sequence, how does the binding signal read?
The binding signal was 9510 fluorescence intensity (a.u.).

How did the binding signal turn out when “CCGCCTAGATGGCATTCCCATCAAGCACTTCAGAGTCTTCCGGAGTCACCTAGTGCAG” was run?
The binding signal was 8270 fluorescence intensity (a.u.).

Which binding signal does the source give for “ACATAAACTTTGCACTTTTCTTACTTTCCACCCACACTAACGGAGTCACCTAGTGCAG” here?
Its binding signal is 10100 fluorescence intensity (a.u.).

How did the binding signal turn out when “CCACCTTTATCTATTTGTTTTTTTGTTCAGTCGTTGGAATCGGAGTCACCTAGTGCAG” was run?
Its binding signal is 10400 fluorescence intensity (a.u.).

With “GATTGGGGTGTGACACGGGTACGACGTGAGGGAGGTGGTTCGGAGTCACCTAGTGCAG” as the sequence, how does the binding signal read?
The binding signal was 10400 fluorescence intensity (a.u.).

With “GCGGCTGCGGGCCTGCGGCTTCCTTCGCTAGGTTGACTACCGGAGTCACCTAGTGCAG” as the sequence, how does the binding signal read?
Its binding signal is 8300 fluorescence intensity (a.u.).

How did the binding signal turn out when “GACGCGGCGCCGAACGGGTCGCTGGGCGGGTACGACGTGACGGAGTCACCTAGTGCAG” was run?
The binding signal was 9200 fluorescence intensity (a.u.).

Which binding signal does the source give for “GAACCTCTCGTAGCCTCACATCTCGTCATTCCTCCCTCCTCGGAGTCACCTAGTGCAG” here?
The binding signal was 8270 fluorescence intensity (a.u.).

Which binding signal does the source give for “CTGGTGCTTGTATCTCCTAGTTTGTGGTATTGGGATTTTTCGGAGTCACCTAGTGCAG” here?
The binding signal was 14700 fluorescence intensity (a.u.).

For “AACTCCCATCTGTTTTCGTTTGAGCTGATTAGGACTTTGTCGGAGTCACCTAGTGCAG”, which binding signal is on record?
The binding signal was 8640 fluorescence intensity (a.u.).

Which binding signal does the source give for “GGTTTGTCATTTTTATTTATTTTTTGCATAATTCGTTTTACGGAGTCACCTAGTGCAG” here?
The binding signal was 11800 fluorescence intensity (a.u.).

How did the binding signal turn out when “ATCGTGAACTCTATTTTCGTAGGCACGGATTGATGCATTACGGAGTCACCTAGTGCAG” was run?
Its binding signal is 8220 fluorescence intensity (a.u.).

With “CCACTCTCCGGCGCACCTATTTTCCATTTATATATATATGCGGAGTCACCTAGTGCAG” as the sequence, how does the binding signal read?
Its binding signal is 9670 fluorescence intensity (a.u.).

Which binding signal does the source give for “CCCTCTCACCACCACCACCACCACCACCCGAGCAATAATTCGGAGTCACCTAGTGCAG” here?
Its binding signal is 8650 fluorescence intensity (a.u.).

With “CCTTGCAAACATGTCCTTCGTTTCCGTATCATGCGATTGGCGGAGTCACCTAGTGCAG” as the sequence, how does the binding signal read?
Its binding signal is 9020 fluorescence intensity (a.u.).

Which binding signal does the source give for “AGTTGATTATGAGTCTTGTGACTTGTGGGGTTGTTTTGGTCGGAGTCACCTAGTGCAG” here?
The binding signal was 12700 fluorescence intensity (a.u.).

With “TTCTTAGTTGTATTTCTATATGGACTGTAGTCTCCTCTTCCGGAGTCACCTAGTGCAG” as the sequence, how does the binding signal read?
The binding signal was 9170 fluorescence intensity (a.u.).

With “ATATATAAGCAACCGGTTATATATTTGTATTGTGTTTTTTCGGAGTCACCTAGTGCAG” as the sequence, how does the binding signal read?
Its binding signal is 8960 fluorescence intensity (a.u.).

Which binding signal does the source give for “GTTGGATTGTTCTTCTGTCTCTGCCAAATCGTTGATGTCACGGAGTCACCTAGTGCAG” here?
The binding signal was 11000 fluorescence intensity (a.u.).

With “TTCCCTTACGTAGTCTCTCGGGAGTATGATCTTGTAATTTCGGAGTCACCTAGTGCAG” as the sequence, how does the binding signal read?
Its binding signal is 8840 fluorescence intensity (a.u.).

From publication PMC7819943, “Rice protein-binding microarrays: a tool to detect cis-acting elements near promoter regions in rice”
